# The supplement of paper PMC12823440, “Inhibitors supercharge kinase turnover through native proteolytic circuits” (Nature, 2025)
# Chains of the proteins cited; added tags and fusions are not shown. Lines headed by an entry give the natural chain unless they say otherwise; changes in a name come on top.
# UniProt P07949, whole entry, looked up: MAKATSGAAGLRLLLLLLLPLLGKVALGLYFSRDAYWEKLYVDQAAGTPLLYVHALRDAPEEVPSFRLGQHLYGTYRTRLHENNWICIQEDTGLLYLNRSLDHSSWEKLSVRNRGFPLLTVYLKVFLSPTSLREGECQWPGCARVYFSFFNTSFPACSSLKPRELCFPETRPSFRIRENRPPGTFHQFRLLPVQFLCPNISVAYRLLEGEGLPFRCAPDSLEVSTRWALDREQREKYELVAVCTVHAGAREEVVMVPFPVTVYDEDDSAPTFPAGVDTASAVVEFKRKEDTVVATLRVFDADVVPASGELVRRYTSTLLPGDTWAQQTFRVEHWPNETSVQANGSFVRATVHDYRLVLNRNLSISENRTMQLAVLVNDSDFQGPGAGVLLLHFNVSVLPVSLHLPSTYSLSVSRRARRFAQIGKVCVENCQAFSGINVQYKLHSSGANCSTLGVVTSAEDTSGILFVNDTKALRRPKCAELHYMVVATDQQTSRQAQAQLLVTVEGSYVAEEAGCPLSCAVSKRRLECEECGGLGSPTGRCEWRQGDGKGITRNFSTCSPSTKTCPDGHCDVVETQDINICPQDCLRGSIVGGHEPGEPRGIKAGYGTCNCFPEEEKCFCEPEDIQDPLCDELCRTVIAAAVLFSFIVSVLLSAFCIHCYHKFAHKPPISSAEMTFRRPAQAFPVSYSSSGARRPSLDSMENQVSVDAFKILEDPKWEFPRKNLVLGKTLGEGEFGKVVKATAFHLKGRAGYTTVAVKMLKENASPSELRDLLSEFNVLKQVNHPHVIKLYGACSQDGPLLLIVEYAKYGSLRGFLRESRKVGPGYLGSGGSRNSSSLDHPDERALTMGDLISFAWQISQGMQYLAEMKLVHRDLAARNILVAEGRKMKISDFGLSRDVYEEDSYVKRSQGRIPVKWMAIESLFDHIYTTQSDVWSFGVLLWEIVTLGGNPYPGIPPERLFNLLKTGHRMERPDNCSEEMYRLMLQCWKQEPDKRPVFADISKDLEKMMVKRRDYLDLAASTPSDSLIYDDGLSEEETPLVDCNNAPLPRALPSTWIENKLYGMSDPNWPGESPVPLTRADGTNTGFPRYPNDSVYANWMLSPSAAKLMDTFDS
# UniProt P07949, whole entry M918T, looked up: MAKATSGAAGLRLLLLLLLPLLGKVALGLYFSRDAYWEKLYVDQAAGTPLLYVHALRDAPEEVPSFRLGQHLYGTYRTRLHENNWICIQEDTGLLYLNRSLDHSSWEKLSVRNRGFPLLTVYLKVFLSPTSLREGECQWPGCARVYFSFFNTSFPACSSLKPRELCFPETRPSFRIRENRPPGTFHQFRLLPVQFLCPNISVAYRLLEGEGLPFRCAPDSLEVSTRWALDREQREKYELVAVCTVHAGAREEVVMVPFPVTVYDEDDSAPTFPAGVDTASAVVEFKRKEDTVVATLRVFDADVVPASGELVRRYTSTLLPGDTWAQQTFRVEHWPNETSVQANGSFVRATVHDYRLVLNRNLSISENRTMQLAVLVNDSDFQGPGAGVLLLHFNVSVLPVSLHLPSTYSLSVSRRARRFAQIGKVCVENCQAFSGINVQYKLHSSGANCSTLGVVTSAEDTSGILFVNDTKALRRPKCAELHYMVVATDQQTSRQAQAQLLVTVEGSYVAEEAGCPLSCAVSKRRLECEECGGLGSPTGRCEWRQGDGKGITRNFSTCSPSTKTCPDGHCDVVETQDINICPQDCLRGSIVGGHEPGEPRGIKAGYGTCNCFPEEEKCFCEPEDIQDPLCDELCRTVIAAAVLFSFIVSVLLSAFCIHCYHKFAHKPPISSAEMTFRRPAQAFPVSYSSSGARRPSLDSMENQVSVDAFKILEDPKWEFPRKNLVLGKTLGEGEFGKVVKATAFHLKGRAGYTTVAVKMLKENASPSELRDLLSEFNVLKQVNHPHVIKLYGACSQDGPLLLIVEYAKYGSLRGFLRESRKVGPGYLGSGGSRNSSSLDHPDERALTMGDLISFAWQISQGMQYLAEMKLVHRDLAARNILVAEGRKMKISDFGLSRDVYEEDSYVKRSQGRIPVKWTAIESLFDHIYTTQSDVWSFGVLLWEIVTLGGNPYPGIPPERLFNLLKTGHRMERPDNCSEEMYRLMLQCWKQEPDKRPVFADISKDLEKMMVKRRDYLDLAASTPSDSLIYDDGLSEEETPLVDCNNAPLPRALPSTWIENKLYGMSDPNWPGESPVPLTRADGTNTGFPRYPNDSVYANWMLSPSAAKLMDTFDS
# UniProt Q15418, whole entry: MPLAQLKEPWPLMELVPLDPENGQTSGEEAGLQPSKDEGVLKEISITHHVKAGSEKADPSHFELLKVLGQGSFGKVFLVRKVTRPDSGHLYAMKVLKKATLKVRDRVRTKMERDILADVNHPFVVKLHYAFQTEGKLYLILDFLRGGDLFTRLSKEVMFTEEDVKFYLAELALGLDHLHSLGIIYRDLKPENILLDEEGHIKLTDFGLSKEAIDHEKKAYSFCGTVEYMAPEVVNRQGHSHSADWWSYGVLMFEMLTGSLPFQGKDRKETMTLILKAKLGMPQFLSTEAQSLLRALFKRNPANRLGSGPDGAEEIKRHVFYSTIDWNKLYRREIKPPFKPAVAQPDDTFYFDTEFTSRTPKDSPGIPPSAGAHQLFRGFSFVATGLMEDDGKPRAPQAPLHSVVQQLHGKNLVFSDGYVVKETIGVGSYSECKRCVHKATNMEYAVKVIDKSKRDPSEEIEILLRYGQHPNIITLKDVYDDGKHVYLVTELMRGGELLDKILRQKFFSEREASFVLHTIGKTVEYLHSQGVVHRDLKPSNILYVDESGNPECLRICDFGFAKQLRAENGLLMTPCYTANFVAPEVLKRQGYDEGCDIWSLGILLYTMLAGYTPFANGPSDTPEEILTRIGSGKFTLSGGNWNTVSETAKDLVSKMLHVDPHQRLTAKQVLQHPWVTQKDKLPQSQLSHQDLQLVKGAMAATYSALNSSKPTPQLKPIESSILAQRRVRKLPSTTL
# UniProt Q9NYA1, whole entry: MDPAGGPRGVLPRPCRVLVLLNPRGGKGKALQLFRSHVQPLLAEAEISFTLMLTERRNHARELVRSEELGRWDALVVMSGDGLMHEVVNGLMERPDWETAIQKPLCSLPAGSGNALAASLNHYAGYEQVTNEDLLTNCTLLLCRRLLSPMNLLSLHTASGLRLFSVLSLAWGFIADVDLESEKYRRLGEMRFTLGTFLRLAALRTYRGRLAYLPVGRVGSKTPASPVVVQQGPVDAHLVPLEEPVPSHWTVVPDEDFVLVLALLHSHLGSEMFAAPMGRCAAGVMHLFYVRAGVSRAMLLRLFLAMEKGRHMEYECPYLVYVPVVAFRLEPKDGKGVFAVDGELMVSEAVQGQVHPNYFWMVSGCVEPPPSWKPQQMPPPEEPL
# UniProt P29597: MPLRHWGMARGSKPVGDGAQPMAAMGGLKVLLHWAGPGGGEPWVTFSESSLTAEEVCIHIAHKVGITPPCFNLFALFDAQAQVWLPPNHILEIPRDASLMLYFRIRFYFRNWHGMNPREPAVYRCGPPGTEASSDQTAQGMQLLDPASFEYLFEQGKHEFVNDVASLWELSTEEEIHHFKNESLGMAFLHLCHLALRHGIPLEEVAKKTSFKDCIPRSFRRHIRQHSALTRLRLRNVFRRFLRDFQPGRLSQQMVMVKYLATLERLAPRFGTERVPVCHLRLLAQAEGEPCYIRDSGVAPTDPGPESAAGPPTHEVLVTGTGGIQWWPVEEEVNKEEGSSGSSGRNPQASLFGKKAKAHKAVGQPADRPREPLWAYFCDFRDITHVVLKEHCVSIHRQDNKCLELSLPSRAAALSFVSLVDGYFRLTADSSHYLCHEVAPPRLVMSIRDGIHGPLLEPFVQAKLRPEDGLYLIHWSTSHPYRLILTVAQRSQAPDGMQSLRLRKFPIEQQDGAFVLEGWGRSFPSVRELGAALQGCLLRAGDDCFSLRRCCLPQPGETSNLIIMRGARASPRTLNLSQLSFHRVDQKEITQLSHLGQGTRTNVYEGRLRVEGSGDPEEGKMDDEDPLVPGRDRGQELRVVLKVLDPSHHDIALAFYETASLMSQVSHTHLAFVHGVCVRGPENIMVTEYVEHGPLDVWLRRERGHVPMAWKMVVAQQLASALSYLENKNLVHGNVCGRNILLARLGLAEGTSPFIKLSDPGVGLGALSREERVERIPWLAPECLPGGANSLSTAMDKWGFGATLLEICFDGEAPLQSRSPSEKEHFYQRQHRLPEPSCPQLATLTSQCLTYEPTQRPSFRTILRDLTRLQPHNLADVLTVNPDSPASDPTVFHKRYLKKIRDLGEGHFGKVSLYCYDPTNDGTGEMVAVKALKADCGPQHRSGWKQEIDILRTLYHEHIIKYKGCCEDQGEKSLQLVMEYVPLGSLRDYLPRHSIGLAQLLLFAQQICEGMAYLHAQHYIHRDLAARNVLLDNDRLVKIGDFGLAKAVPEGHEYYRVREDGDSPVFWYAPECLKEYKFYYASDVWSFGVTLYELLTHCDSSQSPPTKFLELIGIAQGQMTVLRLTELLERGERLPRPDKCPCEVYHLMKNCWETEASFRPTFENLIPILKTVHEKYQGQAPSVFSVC
# UniProt P07947, whole entry, looked up: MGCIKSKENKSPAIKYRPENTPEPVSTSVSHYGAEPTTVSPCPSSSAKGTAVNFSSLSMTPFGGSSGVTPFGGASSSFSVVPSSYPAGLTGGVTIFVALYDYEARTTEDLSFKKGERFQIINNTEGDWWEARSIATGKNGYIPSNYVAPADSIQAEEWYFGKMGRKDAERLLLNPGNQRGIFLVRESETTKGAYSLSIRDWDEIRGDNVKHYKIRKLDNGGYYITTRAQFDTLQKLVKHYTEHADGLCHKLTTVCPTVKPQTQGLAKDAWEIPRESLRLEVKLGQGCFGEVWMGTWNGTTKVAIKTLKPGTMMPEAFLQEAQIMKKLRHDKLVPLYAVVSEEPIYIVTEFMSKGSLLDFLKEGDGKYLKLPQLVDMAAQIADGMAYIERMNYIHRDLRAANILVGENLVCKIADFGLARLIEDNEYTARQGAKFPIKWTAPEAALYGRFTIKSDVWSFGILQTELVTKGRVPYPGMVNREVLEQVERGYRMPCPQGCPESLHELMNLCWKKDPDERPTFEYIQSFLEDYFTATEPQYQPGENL
# UniProt P43403: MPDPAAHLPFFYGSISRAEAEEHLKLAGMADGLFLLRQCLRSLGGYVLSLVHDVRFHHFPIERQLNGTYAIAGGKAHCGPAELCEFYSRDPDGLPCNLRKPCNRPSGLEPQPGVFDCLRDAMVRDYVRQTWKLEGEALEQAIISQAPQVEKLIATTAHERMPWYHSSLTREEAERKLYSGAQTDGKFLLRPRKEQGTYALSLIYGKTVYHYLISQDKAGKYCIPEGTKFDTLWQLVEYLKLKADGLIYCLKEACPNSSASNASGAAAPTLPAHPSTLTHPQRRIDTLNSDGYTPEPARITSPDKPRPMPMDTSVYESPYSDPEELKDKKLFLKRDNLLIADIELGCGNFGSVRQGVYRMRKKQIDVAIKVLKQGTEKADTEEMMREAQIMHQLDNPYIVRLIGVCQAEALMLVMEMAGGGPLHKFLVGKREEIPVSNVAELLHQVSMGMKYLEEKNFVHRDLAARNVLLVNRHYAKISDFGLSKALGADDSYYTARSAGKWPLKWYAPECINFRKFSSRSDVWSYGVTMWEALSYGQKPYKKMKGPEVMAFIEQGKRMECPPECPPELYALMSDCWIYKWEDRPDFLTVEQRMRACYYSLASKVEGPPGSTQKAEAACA
# UniProt P31749: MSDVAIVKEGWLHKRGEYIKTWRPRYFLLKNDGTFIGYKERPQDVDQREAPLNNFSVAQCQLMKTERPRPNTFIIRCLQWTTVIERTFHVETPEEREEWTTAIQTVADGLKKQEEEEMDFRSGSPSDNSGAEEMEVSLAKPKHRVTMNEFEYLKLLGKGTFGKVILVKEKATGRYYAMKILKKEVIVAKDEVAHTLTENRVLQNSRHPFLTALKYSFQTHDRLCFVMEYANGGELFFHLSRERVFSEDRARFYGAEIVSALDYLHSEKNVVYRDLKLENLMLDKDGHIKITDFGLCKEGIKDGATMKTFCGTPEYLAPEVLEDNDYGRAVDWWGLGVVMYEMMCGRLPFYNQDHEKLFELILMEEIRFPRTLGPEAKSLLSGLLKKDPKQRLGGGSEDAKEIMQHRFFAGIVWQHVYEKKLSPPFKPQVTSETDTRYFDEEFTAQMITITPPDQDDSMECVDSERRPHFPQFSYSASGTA
# Where a name gives a salt, the structure may show the parent alone. Some of the results follow. The calls rarely recur for the same compound in another form.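 Kinases were expressed as nanoluciferase fusions in K562 cells and luminescence was read every 4 h between 2 and 18 h as percent of control, DMSO set to 100% and a positive control to 0%. A time point counts as decreased when the signal drops significantly (2 sigma). The hit call is the authors' own, does not follow from the count of time points alone, and its rule is not shown.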
# Legend:
# Conditions in all cases: K562; 2-18 h
# RET = RET (UniProt P07949); assay: kinase-Nluc reporter destabilization hit call (1 = scored as downregulated) (binary); higher = compound decreases kinase abundance
# [1] = target: RET_M918T (clone: RET_mut) (UniProt P07949); assay: as above
# RIOK1 = RIOK1 (UniProt Q9BRS2); assay: as above
# RIPK1 = RIPK1 (UniProt Q13546); assay: as above
# RIPK2 = RIPK2 (UniProt O43353); assay: as above
# ROR2 = ROR2 (UniProt Q01974); assay: as above
# RPS6KA1 = RPS6KA1 (UniProt Q15418); assay: as above
# SPHK1 = SPHK1 (UniProt Q9NYA1); assay: as above
# SRC = SRC (UniProt P12931); assay: as above
# STK24 = STK24 (UniProt Q9Y6E0); assay: as above
# STK38 = STK38 (UniProt Q15208); assay: as above
# SYK = SYK (UniProt P43405); assay: as above
# TEC = TEC (UniProt P42680); assay: as above
# TYK2 = TYK2 (UniProt P29597); assay: as above
# ULK3 = ULK3 (UniProt Q6PHR2); assay: as above
# YES1 = YES1 (UniProt P07947); assay: as above
# ZAK = ZAK (UniProt Q9NYL2); assay: as above
# ZAP70 = ZAP70 (UniProt P43403); assay: as above
# ABL1 = ABL1 (UniProt P00519); assay: number of time points (of 5) at which kinase-Nluc abundance scored as decreased, DMSO-normalised (count); higher = more persistent destabilization
# AKT1 = AKT1 (UniProt P31749); assay: as above
SMILES,kinase-Nluc reporter destabilization hit call (RET),kinase-Nluc reporter destabilization hit call [1],kinase-Nluc reporter destabilization hit call (RIOK1),kinase-Nluc reporter destabilization hit call (RIPK1),kinase-Nluc reporter destabilization hit call (RIPK2),kinase-Nluc reporter destabilization hit call (ROR2),kinase-Nluc reporter destabilization hit call (RPS6KA1),kinase-Nluc reporter destabilization hit call (SPHK1),kinase-Nluc reporter destabilization hit call (SRC),kinase-Nluc reporter destabilization hit call (STK24),kinase-Nluc reporter destabilization hit call (STK38),kinase-Nluc reporter destabilization hit call (SYK),kinase-Nluc reporter destabilization hit call (TEC),kinase-Nluc reporter destabilization hit call (TYK2),kinase-Nluc reporter destabilization hit call (ULK3),kinase-Nluc reporter destabilization hit call (YES1),kinase-Nluc reporter destabilization hit call (ZAK),kinase-Nluc reporter destabilization hit call (ZAP70),number of time points (ABL1),number of time points (AKT1)
Oc1ccc(-c2cnc3ccc(NCc4ccco4)nn23)cc1 [IRAK inhibitor 2] (2.5 µM),inactive: 0,inactive: 0,inactive: 0,inactive: 0,inactive: 0,inactive: 0,inactive: 0,inactive: 0,inactive: 0,inactive: 0,inactive: 0,inactive: 0,inactive: 0,inactive: 0,inactive: 0,inactive: 0,inactive: 0,inactive: 0,0,0
CC(C)Cn1ncc2cc(Oc3ccc(F)cc3F)c(C(=O)NCCN(C)C)cc21 [p38α inhibitor 1] (10 µM),inactive: 0,inactive: 0,inactive: 0,inactive: 0,inactive: 0,inactive: 0,inactive: 0,inactive: 0,inactive: 0,inactive: 0,inactive: 0,inactive: 0,inactive: 0,inactive: 0,inactive: 0,inactive: 0,inactive: 0,inactive: 0,0,0
O=CN1CCN(c2ccc(C=C3C(=O)Nc4ccccc43)cc2)CC1 (10 µM),inactive: 0,inactive: 0,inactive: 0,inactive: 0,inactive: 0,inactive: 0,inactive: 0,inactive: 0,inactive: 0,inactive: 0,inactive: 0,inactive: 0,inactive: 0,inactive: 0,inactive: 0,inactive: 0,inactive: 0,inactive: 0,0,0
CC(ONC(=O)c1cc(C(F)(F)F)cc(C(F)(F)F)c1)C(=O)Nc1ccc(Cl)cc1 (stereo not given) (2.5 µM),inactive: 0,inactive: 0,inactive: 0,inactive: 0,inactive: 0,inactive: 0,inactive: 0,inactive: 0,inactive: 0,inactive: 0,inactive: 0,inactive: 0,inactive: 0,active: 1,inactive: 0,inactive: 0,inactive: 0,inactive: 0,0,0
COc1ccc(CN2CCC(c3ccc4nc(C(=O)N5CCN(Cc6ccc(C(F)(F)F)cc6)CC5)[nH]c4c3)CC2)cn1 (2.5 µM),inactive: 0,inactive: 0,inactive: 0,inactive: 0,inactive: 0,inactive: 0,inactive: 0,inactive: 0,inactive: 0,inactive: 0,inactive: 0,inactive: 0,inactive: 0,inactive: 0,inactive: 0,inactive: 0,inactive: 0,inactive: 0,0,0
CS(=O)(=O)c1ccc([C@@H](CC2CCCC2)C(=O)Nc2nccs2)cc1 (10 µM),inactive: 0,inactive: 0,inactive: 0,inactive: 0,inactive: 0,inactive: 0,inactive: 0,inactive: 0,inactive: 0,inactive: 0,inactive: 0,inactive: 0,inactive: 0,inactive: 0,inactive: 0,inactive: 0,inactive: 0,inactive: 0,0,0
CO/N=C1/C(c2c(O)[nH]c3cc(Cl)c(Cl)cc23)=Nc2ccccc21 (10 µM),inactive: 0,inactive: 0,inactive: 0,inactive: 0,inactive: 0,inactive: 0,inactive: 0,inactive: 0,inactive: 0,inactive: 0,inactive: 0,inactive: 0,inactive: 0,inactive: 0,inactive: 0,inactive: 0,inactive: 0,inactive: 0,0,0
COc1ccc(-c2cc(=O)c3c(O)cc(O)cc3o2)cc1-c1c(O)cc(O)c2c(=O)cc(-c3ccc(O)cc3)oc12 [Bilobetin] (2.5 µM),inactive: 0,inactive: 0,inactive: 0,inactive: 0,inactive: 0,inactive: 0,inactive: 0,inactive: 0,inactive: 0,inactive: 0,inactive: 0,inactive: 0,inactive: 0,inactive: 0,inactive: 0,inactive: 0,inactive: 0,inactive: 0,0,0
CNCc1cc(Oc2ccc3c(ccn3C(=O)Nc3cc(C(F)(F)F)n(C)n3)c2)ncn1 [Acrizanib] (10 µM),inactive: 0,inactive: 0,inactive: 0,inactive: 0,inactive: 0,inactive: 0,inactive: 0,inactive: 0,inactive: 0,inactive: 0,inactive: 0,inactive: 0,inactive: 0,inactive: 0,inactive: 0,inactive: 0,inactive: 0,inactive: 0,0,0
Nc1ccc(O)c(C(=O)O)c1 [5-Aminosalicylic Acid] (10 µM),inactive: 0,inactive: 0,inactive: 0,inactive: 0,inactive: 0,inactive: 0,inactive: 0,inactive: 0,inactive: 0,inactive: 0,inactive: 0,inactive: 0,inactive: 0,inactive: 0,inactive: 0,inactive: 0,inactive: 0,inactive: 0,0,0
CC1(C)C=Cc2c(ccc(C(=O)/C=C/c3ccc(O)cc3)c2O)O1 [4-Hydroxylonchocarpin] (10 µM),inactive: 0,inactive: 0,inactive: 0,inactive: 0,inactive: 0,inactive: 0,inactive: 0,inactive: 0,inactive: 0,inactive: 0,inactive: 0,inactive: 0,inactive: 0,inactive: 0,inactive: 0,inactive: 0,inactive: 0,inactive: 0,0,0
CCc1c(C(=O)NNC(=O)[C@H](O)c2cc(F)cc(F)c2)ccc(O)c1C (10 µM),inactive: 0,inactive: 0,inactive: 0,inactive: 0,inactive: 0,inactive: 0,inactive: 0,inactive: 0,inactive: 0,inactive: 0,inactive: 0,inactive: 0,inactive: 0,inactive: 0,inactive: 0,inactive: 0,inactive: 0,inactive: 0,0,0
Cn1c(N2CCO[C@@H](c3ccc(F)cc3)C2)nc(-c2ccncn2)cc1=O (10 µM),inactive: 0,inactive: 0,inactive: 0,inactive: 0,inactive: 0,inactive: 0,inactive: 0,inactive: 0,inactive: 0,inactive: 0,inactive: 0,inactive: 0,inactive: 0,inactive: 0,inactive: 0,inactive: 0,inactive: 0,inactive: 0,0,0
COc1cccc(-c2cc(=O)c3ccccc3o2)c1N (10 µM),inactive: 0,inactive: 0,inactive: 0,inactive: 0,inactive: 0,inactive: 0,inactive: 0,inactive: 0,inactive: 0,inactive: 0,inactive: 0,inactive: 0,inactive: 0,inactive: 0,inactive: 0,inactive: 0,inactive: 0,inactive: 0,0,0
Nc1ccc(-c2cccc(C(=O)Nc3cnc4nc(N5CCOCC5)oc4c3)n2)cn1 (10 µM),inactive: 0,inactive: 0,inactive: 0,inactive: 0,inactive: 0,inactive: 0,inactive: 0,inactive: 0,inactive: 0,inactive: 0,inactive: 0,inactive: 0,inactive: 0,inactive: 0,inactive: 0,inactive: 0,inactive: 0,inactive: 0,0,0
CN(C)c1cc[n+](Cc2ccc(OCCOc3ccc(C[n+]4ccc(N(C)C)cc4)cc3)cc2)cc1 (10 µM),inactive: 0,inactive: 0,inactive: 0,inactive: 0,inactive: 0,inactive: 0,inactive: 0,inactive: 0,inactive: 0,inactive: 0,inactive: 0,inactive: 0,inactive: 0,inactive: 0,inactive: 0,inactive: 0,inactive: 0,inactive: 0,0,0
CCOc1cc(N2CCC(O)CC2)ccc1Nc1ncc2c(n1)N(C1CCCC1)CCC(=O)N2C (2.5 µM),inactive: 0,inactive: 0,inactive: 0,inactive: 0,inactive: 0,inactive: 0,inactive: 0,inactive: 0,inactive: 0,inactive: 0,inactive: 0,inactive: 0,inactive: 0,inactive: 0,inactive: 0,inactive: 0,inactive: 0,inactive: 0,0,0
C=CC(=O)Nc1cccc(Oc2nc(Nc3ccc(N4CCN(C)CC4)cc3OC)ncc2Cl)c1 (10 µM),inactive: 0,inactive: 0,inactive: 0,inactive: 0,inactive: 0,inactive: 0,inactive: 0,inactive: 0,inactive: 0,inactive: 0,inactive: 0,inactive: 0,inactive: 0,inactive: 0,inactive: 0,inactive: 0,inactive: 0,inactive: 0,0,0
O=C(NCc1ccn[nH]1)c1cc([C@@H]2CCNC[C@H]2COc2ccc3c(c2)OCO3)ccc1F [GRK2-IN-1 (hydrochloride)] (10 µM),inactive: 0,inactive: 0,inactive: 0,inactive: 0,inactive: 0,inactive: 0,inactive: 0,inactive: 0,inactive: 0,inactive: 0,inactive: 0,inactive: 0,inactive: 0,inactive: 0,inactive: 0,inactive: 0,inactive: 0,inactive: 0,0,0

# Part of the list above, with bars between the fields:
SMILES | kinase-Nluc reporter destabilization hit call (RET) | kinase-Nluc reporter destabilization hit call [1] | kinase-Nluc reporter destabilization hit call (RIOK1) | kinase-Nluc reporter destabilization hit call (RIPK1) | kinase-Nluc reporter destabilization hit call (RIPK2) | kinase-Nluc reporter destabilization hit call (ROR2) | kinase-Nluc reporter destabilization hit call (RPS6KA1) | kinase-Nluc reporter destabilization hit call (SPHK1) | kinase-Nluc reporter destabilization hit call (SRC) | kinase-Nluc reporter destabilization hit call (STK24) | kinase-Nluc reporter destabilization hit call (STK38) | kinase-Nluc reporter destabilization hit call (SYK) | kinase-Nluc reporter destabilization hit call (TEC) | kinase-Nluc reporter destabilization hit call (TYK2) | kinase-Nluc reporter destabilization hit call (ULK3) | kinase-Nluc reporter destabilization hit call (YES1) | kinase-Nluc reporter destabilization hit call (ZAK) | kinase-Nluc reporter destabilization hit call (ZAP70) | number of time points (ABL1) | number of time points (AKT1)
Oc1ccc(-c2cnc3ccc(NCc4ccco4)nn23)cc1 [IRAK inhibitor 2] (2.5 µM) | inactive: 0 | inactive: 0 | inactive: 0 | inactive: 0 | inactive: 0 | inactive: 0 | inactive: 0 | inactive: 0 | inactive: 0 | inactive: 0 | inactive: 0 | inactive: 0 | inactive: 0 | inactive: 0 | inactive: 0 | inactive: 0 | inactive: 0 | inactive: 0 | 0 | 0
CC(C)Cn1ncc2cc(Oc3ccc(F)cc3F)c(C(=O)NCCN(C)C)cc21 [p38α inhibitor 1] (10 µM) | inactive: 0 | inactive: 0 | inactive: 0 | inactive: 0 | inactive: 0 | inactive: 0 | inactive: 0 | inactive: 0 | inactive: 0 | inactive: 0 | inactive: 0 | inactive: 0 | inactive: 0 | inactive: 0 | inactive: 0 | inactive: 0 | inactive: 0 | inactive: 0 | 0 | 0
